Results published in article PMC9504280.
These are yes or no findings as the source states them, for the method shown. Binding seen in cells or lysates may run through a third protein. Some results given as binding are weak or reduced against the parent protein; the word gives no strength.

The chains behind the UniProt entries cited, without tags or fusion partners. Residues count along the entry.
UniProt P11881: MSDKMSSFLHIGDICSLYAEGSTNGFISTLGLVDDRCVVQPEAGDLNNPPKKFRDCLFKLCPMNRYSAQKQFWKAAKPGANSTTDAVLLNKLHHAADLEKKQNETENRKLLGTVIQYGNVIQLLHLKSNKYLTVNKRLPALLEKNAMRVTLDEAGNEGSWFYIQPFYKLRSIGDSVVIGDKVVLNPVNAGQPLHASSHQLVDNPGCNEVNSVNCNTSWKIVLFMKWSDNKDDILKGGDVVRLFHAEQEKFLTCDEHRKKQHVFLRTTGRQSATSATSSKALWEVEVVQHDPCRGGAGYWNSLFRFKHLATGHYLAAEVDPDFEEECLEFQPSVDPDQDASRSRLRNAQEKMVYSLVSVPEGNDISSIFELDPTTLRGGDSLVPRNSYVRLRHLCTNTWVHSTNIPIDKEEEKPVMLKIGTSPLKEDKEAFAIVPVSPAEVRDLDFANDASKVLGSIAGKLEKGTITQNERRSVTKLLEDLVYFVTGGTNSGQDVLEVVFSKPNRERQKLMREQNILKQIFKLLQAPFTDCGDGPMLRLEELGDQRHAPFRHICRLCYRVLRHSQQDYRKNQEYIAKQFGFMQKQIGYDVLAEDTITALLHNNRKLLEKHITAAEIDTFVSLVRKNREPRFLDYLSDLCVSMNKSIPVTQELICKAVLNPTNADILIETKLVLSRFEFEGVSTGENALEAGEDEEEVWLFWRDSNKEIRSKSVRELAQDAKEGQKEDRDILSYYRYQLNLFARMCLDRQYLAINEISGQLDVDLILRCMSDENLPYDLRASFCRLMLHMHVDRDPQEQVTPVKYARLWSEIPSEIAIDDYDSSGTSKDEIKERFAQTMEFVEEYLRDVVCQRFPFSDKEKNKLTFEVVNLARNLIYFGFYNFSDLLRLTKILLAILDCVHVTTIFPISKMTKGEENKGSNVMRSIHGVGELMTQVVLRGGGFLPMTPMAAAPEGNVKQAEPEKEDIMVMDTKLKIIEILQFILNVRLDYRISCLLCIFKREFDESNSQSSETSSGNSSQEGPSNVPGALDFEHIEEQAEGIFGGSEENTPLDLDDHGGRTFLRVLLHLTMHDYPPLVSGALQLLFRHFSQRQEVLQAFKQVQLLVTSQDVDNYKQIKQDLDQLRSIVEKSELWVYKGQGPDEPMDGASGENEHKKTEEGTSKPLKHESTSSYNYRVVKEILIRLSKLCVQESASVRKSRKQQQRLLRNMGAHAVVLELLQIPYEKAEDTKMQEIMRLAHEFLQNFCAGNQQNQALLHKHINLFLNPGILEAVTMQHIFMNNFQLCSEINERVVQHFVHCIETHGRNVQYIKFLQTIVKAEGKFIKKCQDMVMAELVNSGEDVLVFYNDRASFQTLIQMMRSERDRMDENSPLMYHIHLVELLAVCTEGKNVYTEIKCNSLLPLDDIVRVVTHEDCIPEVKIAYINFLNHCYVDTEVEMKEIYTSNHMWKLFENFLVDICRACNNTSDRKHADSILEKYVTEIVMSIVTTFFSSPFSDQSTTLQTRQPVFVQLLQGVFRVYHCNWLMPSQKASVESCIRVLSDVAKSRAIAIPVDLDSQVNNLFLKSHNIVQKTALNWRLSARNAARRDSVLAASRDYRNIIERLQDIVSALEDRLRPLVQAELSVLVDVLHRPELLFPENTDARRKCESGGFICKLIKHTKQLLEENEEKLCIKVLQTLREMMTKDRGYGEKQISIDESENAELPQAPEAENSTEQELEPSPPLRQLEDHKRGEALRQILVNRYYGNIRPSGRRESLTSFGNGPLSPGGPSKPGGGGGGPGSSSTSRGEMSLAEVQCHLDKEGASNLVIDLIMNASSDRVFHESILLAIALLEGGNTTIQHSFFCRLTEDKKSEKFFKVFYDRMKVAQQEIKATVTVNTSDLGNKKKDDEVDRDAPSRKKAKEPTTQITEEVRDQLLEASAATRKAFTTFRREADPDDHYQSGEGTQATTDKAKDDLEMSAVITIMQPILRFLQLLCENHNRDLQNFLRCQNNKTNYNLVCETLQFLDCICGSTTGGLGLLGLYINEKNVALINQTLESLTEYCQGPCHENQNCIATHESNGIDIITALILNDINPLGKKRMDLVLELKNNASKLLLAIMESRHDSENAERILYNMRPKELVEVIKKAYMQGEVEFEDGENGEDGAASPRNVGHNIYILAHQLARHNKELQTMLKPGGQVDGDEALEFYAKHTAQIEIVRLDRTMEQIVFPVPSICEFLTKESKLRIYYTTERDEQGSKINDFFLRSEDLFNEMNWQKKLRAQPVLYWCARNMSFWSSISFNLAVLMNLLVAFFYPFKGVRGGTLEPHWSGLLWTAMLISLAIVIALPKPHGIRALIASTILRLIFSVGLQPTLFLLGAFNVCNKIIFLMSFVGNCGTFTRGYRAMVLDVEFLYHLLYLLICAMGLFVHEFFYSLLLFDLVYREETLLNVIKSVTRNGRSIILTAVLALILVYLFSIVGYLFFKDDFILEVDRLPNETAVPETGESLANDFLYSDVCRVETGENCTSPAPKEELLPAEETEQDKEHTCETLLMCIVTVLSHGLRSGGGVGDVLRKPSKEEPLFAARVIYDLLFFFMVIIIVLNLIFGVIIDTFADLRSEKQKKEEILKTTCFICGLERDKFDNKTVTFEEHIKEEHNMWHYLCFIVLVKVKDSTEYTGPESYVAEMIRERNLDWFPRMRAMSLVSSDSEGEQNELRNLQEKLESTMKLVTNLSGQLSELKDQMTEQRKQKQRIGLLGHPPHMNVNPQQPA
UniProt P38647, residues 47-679: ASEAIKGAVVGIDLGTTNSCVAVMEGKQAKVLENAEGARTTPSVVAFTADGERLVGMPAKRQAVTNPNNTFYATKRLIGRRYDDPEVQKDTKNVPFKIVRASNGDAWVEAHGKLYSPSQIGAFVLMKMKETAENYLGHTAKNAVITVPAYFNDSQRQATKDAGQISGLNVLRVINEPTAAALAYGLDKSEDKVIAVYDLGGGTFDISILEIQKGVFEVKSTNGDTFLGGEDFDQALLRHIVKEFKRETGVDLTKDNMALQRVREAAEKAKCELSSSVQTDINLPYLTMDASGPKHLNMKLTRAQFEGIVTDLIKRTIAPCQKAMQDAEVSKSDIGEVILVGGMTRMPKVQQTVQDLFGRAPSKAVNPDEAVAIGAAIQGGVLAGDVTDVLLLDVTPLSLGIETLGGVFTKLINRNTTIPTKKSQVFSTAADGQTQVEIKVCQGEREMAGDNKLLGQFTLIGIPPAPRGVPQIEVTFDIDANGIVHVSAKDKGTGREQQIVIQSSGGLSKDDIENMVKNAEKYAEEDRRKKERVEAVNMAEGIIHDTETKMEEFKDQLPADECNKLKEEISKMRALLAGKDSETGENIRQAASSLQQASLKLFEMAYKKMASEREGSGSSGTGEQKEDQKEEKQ

How the values were obtained:
[1] = target: inositol 1,4,5-triphosphate receptor 1 (IP3R1) (mouse (endogenous in 3T3-L1)) (UniProt P11881); experiment: co-IP; anti-IP3R1 antibody on 1 mg total lysate of 3T3-L1 cells before (day 0) and 7 days after adipogenic differentiation, 4°C overnight, Mag Sepharose Xtra beads, washed with TBST (50 mM Tris-HCl, 150 mM NaCl, 0.1% Tween-20, pH 7.4), eluted with 2% SDS; Western blot for GRP75 and VDAC1
[2] = target: glucose-regulated protein 75 (GRP75) (mouse (endogenous in 3T3-L1)) (UniProt P38647); experiment: co-IP; reciprocal: anti-GRP75 antibody on 1 mg total lysate of 3T3-L1 cells before (day 0) and 7 days after adipogenic differentiation, 4°C overnight, Mag Sepharose Xtra beads, washed with TBST (50 mM Tris-HCl, 150 mM NaCl, 0.1% Tween-20, pH 7.4), eluted with 2% SDS; Western blot for IP3R1 and …

Substance | binding [1] | binding [2]
glucose-regulated protein 75 (GRP75) (from UniProt P38647 47-679) | binds | –
inositol 1,4,5-triphosphate receptor 1 (IP3R1) (from UniProt P11881 1-2749) | – | binds
